These are yes or no findings as the source states them, for the method shown. Some binding calls cover weakened binding; strength is not graded here.

By UniProt entry, the sequences of proteins in these tests, tags left out.
UniProt P52480: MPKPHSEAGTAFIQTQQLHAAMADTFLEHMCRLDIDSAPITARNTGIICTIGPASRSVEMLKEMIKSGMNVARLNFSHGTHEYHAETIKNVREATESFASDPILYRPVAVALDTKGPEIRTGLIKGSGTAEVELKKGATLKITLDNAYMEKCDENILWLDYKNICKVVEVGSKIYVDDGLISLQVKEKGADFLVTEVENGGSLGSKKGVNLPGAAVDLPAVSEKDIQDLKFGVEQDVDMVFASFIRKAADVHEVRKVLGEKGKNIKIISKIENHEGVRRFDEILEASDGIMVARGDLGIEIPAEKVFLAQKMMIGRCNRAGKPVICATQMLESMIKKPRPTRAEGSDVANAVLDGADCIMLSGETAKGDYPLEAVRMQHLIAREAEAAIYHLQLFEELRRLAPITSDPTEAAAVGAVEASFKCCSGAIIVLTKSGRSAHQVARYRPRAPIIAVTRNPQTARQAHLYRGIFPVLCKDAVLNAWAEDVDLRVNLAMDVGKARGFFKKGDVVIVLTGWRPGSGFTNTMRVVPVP

These results are taken from article PMC7656253.

For assay [1], the target named is Valosin-containing protein (VCP), endogenous in mouse cortical neurons (mouse (endogenous in cultured cortical neurons)) (UniProt Q01853). In words: DARTS (drug affinity responsive target stability); plasma membrane fraction lysate of cortical neurons incubated with recombinant PKM2 or vehicle for 30 min at room temperature; thermolysin 60 min at 37 °C; Western blot for VCP; only the binder purified. For orientation: In western blotting, separated proteins are transferred to a membrane and probed.

For assay [2] the target is unchanged. Nature of the assay: DARTS (drug affinity responsive target stability); whole-cell lysate of cortical neurons (2 μg protein) incubated with 50 and 500 ng/ml recombinant PKM2 for 30 min at 24 °C; thermolysin 30 min at 37 °C; SDS-PAGE, silver stain; band identified by nanoLC-MS/MS; only the binder purified.

“Recombinant mouse pyruvate kinase isoform M2 (PKM2) (from UniProt P52480 1-531) (enzyme)”: the binding result in assay [1] and in assay [2] was “binds” throughout.
